Results published in PMC3823883.

By UniProt entry, the sequences of proteins in these tests, tags left out.
UniProt O60260: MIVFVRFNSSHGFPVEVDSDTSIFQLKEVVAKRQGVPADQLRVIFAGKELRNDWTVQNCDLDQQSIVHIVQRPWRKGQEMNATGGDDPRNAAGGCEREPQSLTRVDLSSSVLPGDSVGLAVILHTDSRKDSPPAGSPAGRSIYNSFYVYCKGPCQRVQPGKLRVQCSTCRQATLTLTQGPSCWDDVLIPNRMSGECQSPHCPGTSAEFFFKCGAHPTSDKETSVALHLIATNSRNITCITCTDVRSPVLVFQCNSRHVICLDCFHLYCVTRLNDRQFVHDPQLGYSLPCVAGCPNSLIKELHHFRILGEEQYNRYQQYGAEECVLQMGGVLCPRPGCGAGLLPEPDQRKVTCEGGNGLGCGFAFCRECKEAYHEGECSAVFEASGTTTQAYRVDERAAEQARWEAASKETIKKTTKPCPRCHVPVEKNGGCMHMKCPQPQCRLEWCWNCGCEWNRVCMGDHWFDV

Biological target: TAP-tagged Parkin (human) (UniProt O60260)
Assay: affinity purification with mass spectrometry; tandem affinity purification (streptavidin resin, then calmodulin resin) of TAP-tagged Parkin from whole cell lysates of HEK293T and from mitochondrial and cytosolic fractions of HEK293T and SH-SY5Y cells, not treated or treated with valinomycin (1 uM) or CCCP (10 uM); 4°C; eluate identified by MS, two or more peptide matches

Row | Binder | binding
1 | SART1 (protein, UniProt O43290 1-800) MGSSKKHRGEKEAAGTTAAAGTGGATEQPPRHREHKKHKHRSGGSGGSGGERRKRSRERGGERGSGRRGAEAEARSSTHGRERSQAEPSERRVKREKRDDGYEAAASSKTSSGDASSLSIEETNKLRAKLGLKPLEVNAIKKEAGTKEEPVTADVINPMALRQREELREKLAAAKEKRLLNQKLGKIKTLGEDDPWLDDTAAWIERSRQLQKEKDLAEKRAKLLEEMDQEFGVSTLVEEEFGQRRQDLYSARDLQGLTVEHAIDSFREGETMILTLKDKGVLQEEEDVLVNVNLVDKERAEKNVELRKKKPDYLPYAEDESVDDLAQQKPRSILSKYDEELEGERPHSFRLEQGGTADGLRERELEEIRAKLRLQAQSLSTVGPRLASEYLTPEEMVTFKKTKRRVKKIRKKEKEVVVRADDLLPLGDQTQDGDFGSRLRGRGRRRVSEVEEEKEPVPQPLPSDDTRVENMDISDEEEGGAPPPGSPQVLEEDEAELELQKQLEKGRRLRQLQQLQQLRDSGEKVVEIVKKLESRQRGWEEDEDPERKGAIVFNATSEFCRTLGEIPTYGLAGNREEQEELMDFERDEERSANGGSESDGEENIGWSTVNLDEEKQQQDFSASSTTILDEEPIVNRGLAAALLLCQNKGLLETTVQKVARVKAPNKSLPSAVYCIEDKMAIDDKYSRREEYRGFTQDFKEKDGYKPDVKIEYVDETGRKLTPKEAFRQLSHRFHGKGSGKMKTERRMKKLDEEALLKKMSSSDTPLGTVALLQEKQKAQKTPYIVLSGSGKSMNANTITK | binds
2 | ATP5J2 (protein, UniProt P56134 1-94) MASVGECPAPVPVKDKKLLEVKLGELPSWILMRDFSPSGIFGAFQRGYYRYYNKYINVKKGSISGITMVLACYVLFSYSFSYKHLKHERLRKYH | binds
3 | MYL12A (protein, UniProt P19105 1-171) MSSKRTKTKTKKRPQRATSNVFAMFDQSQIQEFKEAFNMIDQNRDGFIDKEDLHDMLASLGKNPTDEYLDAMMNEAPGPINFTMFLTMFGEKLNGTDPEDVIRNAFACFDEEATGTIQEDYLRELLTTMGDRFTDEEVDELYREAPIDKKGNFNYIEFTRILKHGAKDKDD | binds
4 | INA (protein, UniProt Q16352 1-499) MSFGSEHYLCSSSSYRKVFGDGSRLSARLSGAGGAGGFRSQSLSRSNVASSAACSSASSLGLGLAYRRPPASDGLDLSQAAARTNEYKIIRTNEKEQLQGLNDRFAVFIEKVHQLETQNRALEAELAALRQRHAEPSRVGELFQRELRDLRAQLEEASSARSQALLERDGLAEEVQRLRARCEEESRGREGAERALKAQQRDVDGATLARLDLEKKVESLLDELAFVRQVHDEEVAELLATLQASSQAAAEVDVTVAKPDLTSALREIRAQYESLAAKNLQSAEEWYKSKFANLNEQAARSTEAIRASREEIHEYRRQLQARTIEIEGLRGANESLERQILELEERHSAEVAGYQDSIGQLENDLRNTKSEMARHLREYQDLLNVKMALDIEIAAYRKLLEGEETRFSTSGLSISGLNPLPNPSYLLPPRILSATTSKVSSTGLSLKKEEEEEEASKVASKKTSQIGESFEEILEETVISTKKTEKSNIEETTISSQKI | binds
5 | CIRBP (protein, UniProt Q14011 1-172) MASDEGKLFVGGLSFDTNEQSLEQVFSKYGQISEVVVVKDRETQRSRGFGFVTFENIDDAKDAMMAMNGKSVDGRQIRVDQAGKSSDNRSRGYRGGSAGGRGFFRGGRGRGRGFSRGGGDRGYGGNRFESRSGGYGGSRDYYSSRSQSGGYSDRSSGGSYRDSYDSYATHNE | binds
6 | SSBP1 (protein, UniProt Q04837 17-148) ESETTTSLVLERSLNRVHLLGRVGQDPVLRQVEGKNPVTIFSLATNEMWRSGDSEVYQLGDVSQKTTWHRISVFRPGLRDVAYQYVKKGSRIYLEGKIDYGEYMDKNNVRRQATTIIADNIIFLSDQTKEKE | binds
7 | VGF (protein, UniProt O15240 23-615) APPGRPEAQPPPLSSEHKEPVAGDAVPGPKDGSAPEVRGARNSEPQDEGELFQGVDPRALAAVLLQALDRPASPPAPSGSQQGPEEEAAEALLTETVRSQTHSLPAPESPEPAAPPRPQTPENGPEASDPSEELEALASLLQELRDFSPSSAKRQQETAAAETETRTHTLTRVNLESPGPERVWRASWGEFQARVPERAPLPPPAPSQFQARMPDSGPLPETHKFGEGVSSPKTHLGEALAPLSKAYQGVAAPFPKARRPESALLGGSEAGERLLQQGLAQVEAGRRQAEATRQAAAQEERLADLASDLLLQYLLQGGARQRGLGGRGLQEAAEERESAREEEEAEQERRGGEERVGEEDEEAAEAEAEAEEAERARQNALLFAEEEDGEAGAEDKRSQEETPGHRRKEAEGTEEGGEEEDDEEMDPQTIDSLIELSTKLHLPADDVVSIIEEVEEKRKRKKNAPPEPVPPPRAAPAPTHVRSPQPPPPAPAPARDELPDWNEVLPPWDREEDEVYPPGPYHPFPNYIRPRTLQPPSALRRRHYHHALPPSRHYPGREAQARRAQEEAEAEERRLQEQEELENYIEHVLLRRP | binds

No constants are given. Whether binding was seen depends on the method and setting. In cells and extracts the contact can be indirect. Here binding means that the protein was enriched with, or labelled near, the bait; the list need not be complete.
